From patent US20250320194A1, “PHARMACEUTICALLY ACCEPTABLE SALT AND CRYSTAL FORM OF FUSED PYRIDINE RING DERIVATIVE AND PREPARATION METHOD THEREFOR” (Jiangsu Hengrui Pharmaceuticals Co., Ltd., priority 2021, published 2025)
This continues a long series; more values of the same kind are listed elsewhere.

Assay: Long-term/accelerated stability

Compound	Purity % (4° C., 1 month) [%]	Purity % (4° C., 2 months) [%]	Purity % (4° C., 3 months) [%]	Purity % (4° C., 6 months) [%]	Purity % (4° C., Start) [%]	Purity % (25° C., 60% RH, 1 month) [%]	Purity % (25° C., 60% RH, 2 months) [%]	Purity % (25° C., 60% RH, 3 months) [%]	Purity % (25° C., 60% RH, 6 months) [%]	Purity % (25° C., 60% RH, Start) [%]	Purity % (40° C., 75% RH, 1 month) [%]	Purity % (40° C., 75% RH, 2 months) [%]	Purity % (40° C., 75% RH, 3 months) [%]	Purity % (40° C., 75% RH, 6 months) [%]	Purity % (40° C., 75% RH, Start) [%]
CC(C)(C#Cc1nc(C(Cc2cc(F)cc(F)c2)NC(=O)Cn2nc(C(F)(F)F)c3c2C(F)(F)C2CC32)c(-c2ccc(Cl)c3c([N-]S(C)(=O)=O)nn(CC(F)(F)F)c23)c2c1CCC2)S(C)(=O)=O.C[N+](C)(C)CCO (stereo not shown) [Crystal form B of the choline salt]	98.38	98.31	98.28	98.30	98.34	98.37	98.36	98.29	98.25	98.34	98.37	98.32	98.28	98.23	98.34
CC(C)(C#Cc1nc(C(Cc2cc(F)cc(F)c2)NC(=O)Cn2nc(C(F)(F)F)c3c2C(F)(F)C2CC32)c(-c2ccc(Cl)c3c([N-]S(C)(=O)=O)nn(CC(F)(F)F)c23)c2c1CCC2)S(C)(=O)=O.[Na+] (stereo not shown) [Crystal form III of the sodium salt]	–	–	–	–	–	98.34	98.22	98.28	98.20	98.32	98.25	98.22	98.27	98.23	98.32
CC(C)(C#Cc1nc(C(Cc2cc(F)cc(F)c2)NC(=O)Cn2nc(C(F)(F)F)c3c2C(F)(F)C2CC32)c(-c2ccc(Cl)c3c([N-]S(C)(=O)=O)nn(CC(F)(F)F)c23)c2c1CCC2)S(C)(=O)=O.[K+] (stereo not shown) [Crystal form a of the potassium salt]	98.02	97.99	98.04	98.01	98.03	98.02	98.00	98.04	98.01	98.03	98.04	98.06	98.08	97.99	98.03
